# Laboratory results as given in the supplement of paper PMC10338343.
# ± gives the standard deviation. Only a part is listed here, and it is no random draw. Many entries were measured with a wide error.
# System: MILI (PIWIL2) piRISC loaded with L1MC piRNA (26 nt)
# Test: pre-steady-state target cleavage rate (min^-1); MIWI and MILI are mouse PIWI proteins and EfPiwi is from a freshwater sponge; tags in brackets are library labels; higher = faster piRNA-guided slicing of the target
# Settings: guide: L1MC piRNA 5'p-UAACUAAAUACUAUGCAAGCUGUAGG; auxiliary factor: 500 nM mouse GTSF1
# Summary of the method: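 The pre-steady-state cleavage rate was calculated from a burst-and-steady-state fit. Data came from Cleave-'n-Seq, in which […] transcribed, DNA-blocked target RNA library was mixed with 1 nM active affinity-purified piRISC carrying one synthetic guide, with or without 500 nM GTSF1 partner protein, in HEPES–potassium acetate buffer at 33 °C for 0–8 or 0–960 min. Uncleaved targets were sequenced and normalised to depth and to weakly complementary targets, three trials were pooled, and k3 was capped at 0.0001 min^-1.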
# 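Note: 1 nM active piRISC with 0.1 nM target library at 33 °C single turnover.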
row,Sequence,pre-steady-state target cleavage rate
1,UCCUGGUACAGCUUGCAUACUAAUUAGUUA,0.0462 ± 0.019
2,UCCUGGAUCAGCUUGCAUUGUAUUUAGUAA,0.144 ± 0.014
3,UCCUCCUACAGGUUGCAUAGUAUUAAGUUA,0.212 ± 0.027
4,UCCUGCUACAGCUUGCAUAGUUUUAAGUUA,0.0676 ± 0.015
5,UCCUGGAACAGGUUGCAUAGUAUUUAGAUA,0.136 ± 0.025
6,UCCUGGAUGUCCUUGCAUAGUAUUUAGUAUA,0.191 ± 0.03
7,UCCUGGAACAGCUUGCAUAGUUUUUAGAAA,0.0191 ± 0.007
8,UCCUGCAACAGCUUGCAUAGUAUUUAGAUA,0.125 ± 0.024
9,UCCUGGUACAGCUUGCAUAGUAUUAUCAAA,0.0127 ± 0.0058
10,UCCUGGAACAGCUUGCAUAGUAUUUAGUCUA,0.055 ± 0.015
11,UCCUGGAUGUGCUUGCAUAGUUUUUAGUUA,0.0127 ± 0.0066
12,UCCUGGUACAGCUUCCUUAGUAUUUAGUUA,0.288 ± 0.052
13,UCCUGGAUGUCCAUGCAAAGUAUUUAGUUA,0.0101 ± 0.0043
14,UCCUGGUACAGCUUGCAGAGUAUUUAGUUA,0.121 ± 0.026
15,UCCUGGAACAGCUUGCAUAGUAUUUAUUUA,0.113 ± 0.026
16,UCCUGGAUGAGCUGCAUAGUAUUUAGUUA,0.101 ± 0.013
17,UCCUCCAACAGCUUGCAUAGUAUAUAGUUA,0.234 ± 0.027
18,UCCUGCUACAGCUUGCAUAGUAUUUAGCUUA,0.161 ± 0.037
19,UCCUGGAUGAGCUUGCAUAGUGUUUAGUUA,0.117 ± 0.016
20,UCCUGGAUGUCGUUGCAUAGUAUUGAGUUA,0.0312 ± 0.011

row,Sequence,pre-steady-state target cleavage rate
1,UCCUGGAACAGCAAGCAUAGUAUUUUCAAA,0.0642 ± 0.018
2,UCCUGCUACAGCUUGCAUAGUUUAUAGUUA,0.0528 ± 0.017
3,UCCUGGAUGUGCUUGCGUAGUAUUUAGUUA,0.0451 ± 0.013
4,UCCUGCUACACCUUGCAUAGUAUUUAGAUA,0.112 ± 0.032
5,UCCUGGUACAGCUUGCAUAGUAUUUAAUUA,0.0793 ± 0.022
6,UCCUGCUACAGCUUGCACAGUAUUUAGUUA,0.157 ± 0.015
7,UCCUGCUACAGCUUGCAUAGAAAUUAGUUA,0.059 ± 0.015
8,UCCUGGAUCUGCUUGCAUAGAAUUUAGUUA,0.0261 ± 0.0069
9,UCCUGCUACAGCUUGCAUGUAUUUAGUUA,0.104 ± 0.02
10,UCCUGGUUGAGCUUGCAUAGUAUUUAGAAA,0.0925 ± 0.026
11,UCCUGGAACUGCUUGCAUAGUAUUUACUUA,0.0984 ± 0.027
12,UCCUGGAUCAGCUUGCAUAGUAUUUACGUUA,0.243 ± 0.027
13,UCCUGGAACAGCUUGCUUAGUAUUUAGUUA,0.264 ± 0.01
14,UCCUGGAUGAGCUAGCAUAGAAUUUAGUUA,0.0337 ± 0.011
15,UCCUGGAACAGCUUGCAUAGUAUAUAGUUA,0.296 ± 0.029
16,UCCUGGAUCAGCUUGCAUAGAAUUUAGUAA,0.0373 ± 0.011
17,UCCUGGAUGAGCUUGCAUAGUAUUUACUAA,0.00674 ± 0.0044
18,UCCUGGUACAGCUAGCAUAGAAUUUAGUUA,0.313 ± 0.084
19,UCCUGGAACAGCUUCCUUAGUAUUUAGUUA,0.214 ± 0.018

# Same assay, conditions: guide: L1MC piRNA 5'p-UAACUAAAUACUAUGCAAGCUGUAGG; auxiliary factor: none (no GTSF1)
row,Sequence,pre-steady-state target cleavage rate
1,UCCUGGUACAGCUUGCAUACUAAUUAGUUA,0.00356 ± 0.0031
2,UCCUGGAUCAGCUUGCAUUGUAUUUAGUAA,0.00277 ± 0.0032
3,UCCUCCUACAGGUUGCAUAGUAUUAAGUUA,0.00545 ± 0.0022
4,UCCUGCUACAGCUUGCAUAGUUUUAAGUUA,0.00193 ± 0.0034
5,UCCUGGAACAGGUUGCAUAGUAUUUAGAUA,0.00245 ± 0.0031
6,UCCUGGAUGUCCUUGCAUAGUAUUUAGUAUA,0.00617 ± 0.0026
7,UCCUGGAACAGCUUGCAUAGUUUUUAGAAA,0.0011 ± 0.005
8,UCCUGCAACAGCUUGCAUAGUAUUUAGAUA,0.00191 ± 0.0051
9,UCCUGGUACAGCUUGCAUAGUAUUAUCAAA,0.00149 ± 0.0038
10,UCCUGGAACAGCUUGCAUAGUAUUUAGUCUA,0.00289 ± 0.003
11,UCCUGGAUGUGCUUGCAUAGUUUUUAGUUA,0.00796 ± 0.0026
12,UCCUGGUACAGCUUCCUUAGUAUUUAGUUA,0.00854 ± 0.0031
13,UCCUGGAUGUCCAUGCAAAGUAUUUAGUUA,0.00172 ± 0.005
14,UCCUGGUACAGCUUGCAGAGUAUUUAGUUA,0.00836 ± 0.0028
15,UCCUGGAACAGCUUGCAUAGUAUUUAUUUA,0.00154 ± 0.005
16,UCCUGGAUGAGCUGCAUAGUAUUUAGUUA,0.00501 ± 0.0028
17,UCCUCCAACAGCUUGCAUAGUAUAUAGUUA,0.0056 ± 0.0022
18,UCCUGCUACAGCUUGCAUAGUAUUUAGCUUA,0.00134 ± 0.0056
19,UCCUGGAUGAGCUUGCAUAGUGUUUAGUUA,0.00732 ± 0.0031
20,UCCUGGAUGUCGUUGCAUAGUAUUGAGUUA,0.00363 ± 0.0032

row,Sequence,pre-steady-state target cleavage rate
1,UCCUGGAACAGCAAGCAUAGUAUUUUCAAA,0.000228 ± 0.014
2,UCCUGCUACAGCUUGCAUAGUUUAUAGUUA,0.00196 ± 0.003
3,UCCUGGAUGUGCUUGCGUAGUAUUUAGUUA,0.0145 ± 0.0037
4,UCCUGCUACACCUUGCAUAGUAUUUAGAUA,0.00163 ± 0.0048
5,UCCUGGUACAGCUUGCAUAGUAUUUAAUUA,0.00528 ± 0.0035
6,UCCUGCUACAGCUUGCACAGUAUUUAGUUA,0.00803 ± 0.0023
7,UCCUGCUACAGCUUGCAUAGAAAUUAGUUA,0.00196 ± 0.0032
8,UCCUGGAUCUGCUUGCAUAGAAUUUAGUUA,0.00138 ± 0.0034
9,UCCUGCUACAGCUUGCAUGUAUUUAGUUA,0.00362 ± 0.0023
10,UCCUGGUUGAGCUUGCAUAGUAUUUAGAAA,0.00274 ± 0.0031
11,UCCUGGAACUGCUUGCAUAGUAUUUACUUA,0.00292 ± 0.0023
12,UCCUGGAUCAGCUUGCAUAGUAUUUACGUUA,0.00431 ± 0.0028
13,UCCUGGAACAGCUUGCUUAGUAUUUAGUUA,0.00723 ± 0.0021
14,UCCUGGAUGAGCUAGCAUAGAAUUUAGUUA,0.00157 ± 0.0037
15,UCCUGGAACAGCUUGCAUAGUAUAUAGUUA,0.00847 ± 0.0025
16,UCCUGGAUCAGCUUGCAUAGAAUUUAGUAA,0.000899 ± 0.0061
17,UCCUGGAUGAGCUUGCAUAGUAUUUACUAA,0.000912 ± 0.0073
18,UCCUGGUACAGCUAGCAUAGAAUUUAGUUA,0.00285 ± 0.0039
19,UCCUGGAACAGCUUCCUUAGUAUUUAGUUA,0.00562 ± 0.002
